From PubChem BioAssay AID540336 (Broad Institute, 2011)
The campaign covered roughly 330,000 compounds. About 520 (0.16%) were called active. The shares of active, inactive and inconclusive entries below differ from those in the screen.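 Rule for the calls: active = inhibition of at least 50% in every replicate; inconclusive = best replicate reaches 50% inhibition but some replicates fall short; inactive = the rest.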

The chains behind the UniProt entries cited, without tags or fusion partners.
UniProt Q5AAJ8, whole entry, looked up: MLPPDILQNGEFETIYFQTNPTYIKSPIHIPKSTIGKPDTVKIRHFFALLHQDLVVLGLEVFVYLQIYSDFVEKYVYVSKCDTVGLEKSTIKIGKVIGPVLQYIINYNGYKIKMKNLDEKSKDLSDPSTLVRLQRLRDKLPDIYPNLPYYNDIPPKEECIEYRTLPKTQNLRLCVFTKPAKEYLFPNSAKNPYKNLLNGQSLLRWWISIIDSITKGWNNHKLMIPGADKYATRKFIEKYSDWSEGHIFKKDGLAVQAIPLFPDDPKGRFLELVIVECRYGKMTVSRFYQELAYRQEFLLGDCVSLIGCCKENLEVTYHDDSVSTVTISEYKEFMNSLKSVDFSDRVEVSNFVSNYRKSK

molecular target: Histone acetyltransferase RTT109 (Candida albicans (strain SC5314 / ATCC MYA-2876)) (UniProt Q5AAJ8); assay: Rtt109-Vps75 histone acetyltransferase blockade – biochemical, ThioGlo CoA-SH fluorescence, plate reader, primary screen (AID 540336); conditions: purified Rtt109/Vps75, ThioGlo CoA-SH fluorescence, 4 h; at 34.9 µM; stronger effect = higher value

Row | Structure (SMILES) | inhibition
1 | O=c1oc2ccccc2n1CSC1=NCCS1 | inconclusive: 43.7%
2 | C#CCOCCOCCOCCNc1nc(N2CCN(C(=O)[C@H](CCCN=C(N)N)n3cc(C(N)[C@@H](C)CC)nn3)CC2)nc(N2CCN(C(=O)[C@H](CCCCN)n3cc([C@@H](N)CC(N)=O)nn3)CC2)n1 (some centres undefined) | active: 80.3%
3 | COc1cc(Cl)c(C)cc1NC(=O)CN1CCN(C(=O)C2CC2)CC1 | inactive: 1.73%
4 | O=C(CCN1CCCO1)N1CCCC(N2CCN(c3ccccc3F)CC2)C1 (centres undefined) | inactive: -5.29%
5 | O=C1COc2ccc(C(=O)NCc3ccco3)cc2N1 | active: 66.9%
6 | Cc1cccc(NC(=O)c2ccccc2NC(=O)CCC(=O)O)c1 | inconclusive: 25.7%
7 | O=c1c2ccccc2sn1-c1cc(S(=O)(=O)N2CCOCC2)ccc1N1CCOCC1 | active: 122%
8 | CCCCn1c(-c2nn(C)cc2Cl)n[nH]c1=S | inconclusive: 27%
9 | CCNC(=O)NC(=O)CSc1nnc(-c2c[nH]c3ccccc23)o1 | active: 51%
10 | NS(=O)(=O)c1ccc(CCNS(=O)(=O)c2ccccc2)cc1 | inconclusive: 28.4%
11 | O=c1c(O)cccc2cc(O)c(O)c(O)c12 | inconclusive: 40.1%
12 | CSc1ncccc1C(=O)Nc1nc2ccc(S(C)(=O)=O)cc2s1 | inactive: -21%
13 | COc1ccccc1-c1sc2cc3c(cc2c1C#CC1(O)CCCCC1)OCO3 | inactive: -16.9%
14 | CSc1ccc(CN(C)C(=O)c2ccc(S(=O)(=O)Nc3ccccc3)cc2)cc1 | inconclusive: 35.9%
15 | CCNC(=O)/C(C#N)=C/c1c(N2CCN(C)CC2)nc2c(C)cccn2c1=O | inactive: 2.36%
16 | O=C(CN1CCCC1)Nc1sc2c(c1C(=O)Nc1ccc(Br)cc1)CCC2 | inactive: -5.34%
17 | OC1(c2nc3ccccc3[nH]2)CCCCC1 | inconclusive: 7.85%
18 | COc1ccc(-c2c(C)nn3c(C)cc(C)nc23)cc1 | active: 57.7%
19 | CC1S/C(=N/N=C/c2cccc([N+](=O)[O-])c2)NC1=O (centres undefined) | inconclusive: 101%
20 | CCCCCc1ccc(OCCCC[n+]2ccc(C)cc2)c(CCCCC)c1 | inconclusive: 54.4%
21 | CCOC(=O)N1CCC(N2CCCC(C(=O)c3cc(F)ccc3OC)C2)CC1 (centres undefined) | inconclusive: 29.6%
22 | C=CCN=c1scc(-c2ccco2)n1/N=C/c1ccc(O)c(O)c1O | inconclusive: 40.6%
23 | Nc1nonc1C(=O)NCCNC(=O)c1cccc(Cl)c1 | inconclusive: 43.9%

Row | Structure (SMILES) | inhibition
24 | O=C(Nc1ccc([N+](=O)[O-])cn1)c1cc(-c2cccc(Br)c2)nc2ccccc12 | inconclusive: 21.3%
25 | CCN(CC)c1cccc(OCC(=O)N2c3ccccc3CC2C)c1 (centres undefined) | inactive: -3.67%
26 | COc1ccccc1NC(=O)N(CCN(C)C)Cc1cc2cc(C)ccc2[nH]c1=O | inconclusive: 30.5%
27 | CS(=O)(=O)NCCSCc1ccco1 | active: 52.7%
28 | Cc1cc(C)c(C(N)=O)c(Nc2cccc(Cl)c2C)n1 | inconclusive: 26.1%
29 | COc1ccc(C(=O)NC2CCCCCC2)cc1OC1CCN(C(C)=O)CC1 | inconclusive: 35.2%
30 | O=C(CN1C(=O)C2(OCCO2)c2cc(Br)ccc21)NO | inactive: -6.48%
31 | Cc1nn(C)c(Oc2cccc(Cl)c2)c1C(=O)O | inconclusive: 42.2%
32 | COc1ccccc1NS(=O)(=O)c1cccc(C(=O)OCC(=O)Nc2cc(C)on2)c1 | inconclusive: 41.5%
33 | ClC(Cl)(c1nnnn1-c1ccccc1)c1nnnn1-c1ccccc1 | inconclusive: 66.7%
34 | COc1ccc(NC(=O)c2ccc(COCC(F)(F)F)cc2)cc1OC | inconclusive: 40.5%
35 | Cc1cc(C)c2cc(CN(Cc3ccco3)C(=O)NCc3ccccc3)c(=O)[nH]c2c1 | inconclusive: 39.9%
36 | Cc1cc(=O)n(-c2ccc(C(=O)O)cc2)[nH]1 | inactive: 19.4%
37 | O=C1C(Cl)=C(N2CCOCC2)C(=O)N1c1cccc(C(F)(F)F)c1 | inconclusive: 41.9%
38 | C#CCOCCOCCOCCNc1nc(N2CCN(C(=O)CCCCCCCCCCNC(=O)[C@H](CCCCN)n3cc(CCCC(=O)O)nn3)CC2)nc(N2CCN(C(=O)CCCCCCCCCCNC(=O)[C@H](CCCN=C(N)N)n3cc(C[C@@H](C)CC)nn3)CC2)n1 | inconclusive: 38.7%
39 | O=Nc1c(O)n(Cc2ccc(Cl)c(Cl)c2)c2ccccc12 | inconclusive: 53.4%
40 | Cc1ccc(N2C(=O)CS(=O)C(c3ccccc3)C2=O)cc1C (centres undefined) | inconclusive: 28.4%
41 | CCN(CC)CCN(C(=O)c1ccc2c(c1)OCCO2)c1nc2cc(C)cc(C)c2s1 | inconclusive: 50.3%
42 | O=c1c2ccccc2sn1-c1ccc(F)cc1 | inconclusive: 78.4%
43 | O=C(Nc1ccc(F)cc1F)N1CCCC(c2nc(-c3ccc(F)cc3)no2)C1 (centres undefined) | active: 64.1%
44 | Cc1cccc(NC(=O)c2cc(NC(=O)C3CCCCC3C(=O)O)ccc2N2CCCCC2)c1 (centres undefined) | inconclusive: 57.7%
45 | COc1cc(/C=N/NC(=O)c2nc(-c3ccccc3)n(-c3ccccc3)n2)ccc1O | inactive: -3.08%
46 | Cc1ccc(S(=O)(=O)Nc2cc(Cl)c(O)c3ncccc23)cc1 | inconclusive: 85.1%

Row | Structure (SMILES) | inhibition
47 | Cc1ccc(NC(=O)CN2C(=O)NC(C)(C)C2=O)cc1S(=O)(=O)N1CCCCCC1 | inactive: 7.07%
48 | O=C(Nc1ccc2oc(-c3ccncc3)nc2c1)c1ccc2c(c1)OCCO2 | active: 57.2%
49 | COc1cccc(NC(=O)COC(=O)c2sccc2C)c1 | inactive: -7.72%
50 | CCc1ccccc1C1C(=O)c2ccccc2C1=O | inactive: 10%
51 | Cc1csc2nc(COC(=O)c3ccc(Cl)c([N+](=O)[O-])c3)cc(=O)n12 | inconclusive: 32.9%
52 | CCOC(=O)c1c(C)n(-c2ccc(C)cc2)c2ccc(OCC(O)CNCC3CCCO3)cc12 (centres undefined) | active: 64.3%
53 | Cc1cc(C)n2nc(SCc3nnc(SCc4ccccc4C)s3)nc2n1 | inactive: -4.12%
54 | COc1cccc(OCc2cc(/C=N/Nc3ccc(C(=O)O)cc3)ccc2OC)c1 | active: 50.3%
55 | O=C(/C=C\Nc1ccccn1)c1ccc(Cl)cc1 | active: 62.3%
56 | Cc1cc(C)cc(OCC(=O)NCc2cc(C)nc3ccccc23)c1 | inconclusive: 26.7%
57 | Cc1ccc(C(C)C)c(OCc2nn(CC(=O)c3ccc(Cl)cc3)c3[n+]2CCCCC3)c1 | inconclusive: 36.1%
58 | COc1ccc2[nH]c(=O)c(CN(Cc3nnnn3Cc3ccccc3)CC3CCCO3)cc2c1 (centres undefined) | active: 53%
59 | O=[N+]([O-])c1ccccc1OCCNCc1ccccc1 | inactive: -9.72%
60 | COc1cccc2c1OCC1COc3c(c(=O)n(C)c(=O)n3C)C21 (centres undefined) | inconclusive: 31.2%
61 | COc1ccc(CSC(=N)N)cc1[N+](=O)[O-] | inconclusive: 48.1%
62 | N=c1c[n+](N2CCOCC2)[n-]o1 | active: 55.6%
63 | CCC(NC(=O)Nc1nnc(C(F)(F)F)s1)(C(F)(F)F)C(F)(F)F | inactive: -13.7%
64 | O=C(Nc1cccc(C(F)(F)F)c1)c1csc(-c2ccncc2)n1 | inconclusive: 31.8%
65 | CCC1C(O)=C(c2ccccn2)C(=N)N1c1ccccc1 (centres undefined) | inconclusive: 28.5%
66 | Cn1c(=O)[nH]c(=O)c2c1[nH]c(=S)n2Cc1ccc(Cl)cc1 | inactive: -0.313%
67 | O=C(OCc1nnc(-c2ccccc2)o1)C1CC(=O)N(CCc2ccccc2)C1 (centres undefined) | inconclusive: 14.9%
68 | Cc1ccc(S(=O)(=O)c2nc(-c3ccccc3)oc2N2CCC(C(N)=O)CC2)cc1 | active: 56.5%
69 | COc1ccc(N2CCN(c3nc4c(c(=O)n(C)c(=O)n4C)n3Cc3ccccc3)CC2)cc1 | inconclusive: 20.5%

Given as tab-separated lines: part of the list above.
Row	Structure (SMILES)	inhibition
51	Cc1csc2nc(COC(=O)c3ccc(Cl)c([N+](=O)[O-])c3)cc(=O)n12	inconclusive: 32.9%
52	CCOC(=O)c1c(C)n(-c2ccc(C)cc2)c2ccc(OCC(O)CNCC3CCCO3)cc12 (centres undefined)	active: 64.3%

(more compounds)

Row | Structure (SMILES) | inhibition
70 | Cc1ccc(C)c(NC(=O)CN(C)C(=O)c2sccc2C)c1 | inconclusive: 43.2%
71 | COCCNC(=O)/C(C#N)=C/c1cccc(/C=C(\C#N)C(=O)NCCOC)c1 | inactive: -2.28%
72 | CC(N)=Nc1ccc([N+](=O)[O-])cc1 | inactive: -1.36%
73 | CSc1nccn1CC(=O)Nc1ccc(F)cc1 | inactive: 4.05%
74 | Cn1c(N)c(C(=O)COC(=O)CNS(=O)(=O)c2ccc(Cl)c(Cl)c2)c(=O)n(C)c1=O | inconclusive: 88.5%
75 | CCCCOc1ccc2ccccc2c1C=O | inactive: 0.765%
76 | CCOC(=O)c1c(C)oc2c1c(C=NCCO)c(O)c1ccccc12 | active: 52.5%
77 | O=C(Oc1ccc(Cl)c2cccnc12)c1cccnc1 | inactive: -1.57%
78 | O=C(COc1cccnc1[N+](=O)[O-])c1ccc(Cl)s1 | inconclusive: 24.8%
79 | Cc1nc(CCNS(=O)(=O)c2cccs2)cs1 | inactive: 6.23%
80 | CC(C(=O)OCC(=O)c1ccc([N+](=O)[O-])cc1)N1C(=O)C2C3CCC(C3)C2C1=O (centres undefined) | active: 108%
81 | CCOC(=O)c1c(NC(=O)C[n+]2ccc(Cc3ccccc3)cc2)sc(C)c1C | inconclusive: 36.8%
82 | CCN(CC)CCn1c(SCC(=O)Nc2ccc3c(c2)CCC3)nc2ccccc2c1=O | inconclusive: 13.3%
83 | CC1Cc2ccccc2N1C(=O)CCS(=O)(=O)c1cccs1 (centres undefined) | inconclusive: 24.9%
84 | COc1ccc(C(=O)Nc2ccc3c(c2)nc(CCNC(=O)c2ccco2)n3C)cc1 | inactive: -1.75%
85 | CC(=O)c1ccccc1NC(=O)COC(=O)/C=C/c1ccc(OC(F)F)cc1 | inactive: -17.1%
86 | CC(=O)N/N=C\c1cccc(OC/C=C/c2ccccc2)c1 | inconclusive: 30.6%
87 | Cc1ccc(S(=O)(=O)/N=C2\C=C(NS(=O)(=O)c3ccccc3)C(=O)c3ccccc32)cc1 | inconclusive: 49.5%
88 | C=CCn1c(O)c(C2=c3ccccc3=NC2=O)sc1=Nc1ccc(O)cc1 | inactive: 8.01%
89 | CCc1cccc(NC(=O)C2CCCN(c3ncnc4c3nc3n4CCCCC3)C2)c1 (centres undefined) | active: 87.3%
